Measurements published in US20130260458A1, “METHOD OF INDUCING DIFFERENTIATION OF HUMAN PLURIPOTENT STEM CELL INTO HEPATIC PROGENITOR CELL” (NATIONAL UNIVERSITY CORPORATION CHIBA UNIVERSITY, priority 2012, published 2013).
At least one structure is not confirmed: it was looked up by name or label, or the drawing left a doubt.

Tested on: Human iPS cells (201B7)
Assay: Expression of transcription factors in iPS cells cultured with single growth-promoting agents (RT-PCR, electrophoresis)
Assay type: cell-based
Settings: iPS cells in iPSm(−) medium with the growth-promoting agent added; PCR and electrophoresis, FIG. 2
Procedure: Reverse transcriptase (Life Technologies Japan Ltd.) was used to synthesize cDNAs of iPS cells, fetal hepatic cells and adult hepatic cells from 3 μg of RNA. The cDNAs were subjected to polymerase chain reaction (PCR) using the following primers to GATA4, FOXA2, HEX, C/EBPα and C/EBPβ, respectively, and to electrophoresis using 2% low-melting agarose (Lonza) and 1×TAE, for investigations on the expression of GATA4, FOXA2, HEX, C/EBPα and C/EBNβ in the iPS cells, fetal hepatic cells and adult hepatic cells.
After electrophoresis, the 2% low-melting agarose was irradiated with ultraviolet rays at 254 nm from a UV transilluminator (UVP LLC, NLMS-20E), and a Polaroid photograph (FUJIFILM Corporation, FP-3000B) thereof was taken with a gel camera (Funakoshi DS-300) to analyze an electrophoretic pattern.
PCR cycles performed included 30 cycles of thermal denaturation: 1 minute at 94° C.; annealing: 1 minute and elongation reaction: 1 minute at 72° C.
Human iPS cells (201B7, RIKEN cell bank) were seeded onto a matrigel-coated 6-well plate, and cultured in a feeder-less medium, ReproFF (trade name, Reprocell Inc.) for culture of stem cells maintained in an undifferentiated state, without using a feeder cell, under conventional conditions: 37° C. and 5% carbon dioxide.
A medium obtained by adding a 20% knock-out serum replacement (Life Technologies Japan Ltd.), 10% Minimum Essential Amino Acids (Life Technologies Japan Ltd.), 2 mM of L-glutamine (Life Technologies Japan Ltd.) and 1 mM of 2-mercaptoethanol to a D-MEM/F12 medium (Dulbecco's Modified Eagle Medium-F12 medium, Sigma-Aldrich Japan) was used as an iPSm(−) medium.
The following growth-promoting agents were added to the iPSm(−) medium, and SOX-17, GATA6, FOXA2, GATA4, HEX, TTR and C/EBPα were expressed in a manner similar to that in Experiment 1.
As the growth-promoting agents, added were bFGF (basic fibroblast growth factor, Wako Pure Chemical Industries, Ltd.), BMP (bone morphogenetic protein)-4 (Wako Pure Chemical Industries, Ltd.), oncostatinM (Wako Pure Chemical Industries, Ltd.), an epidermal growth factor (EGF, Wako Pure Chemical Industries, Ltd.), a nerve growth factor (NGF, R & D Systems, Inc.), TGF-β, (transform growth factor-β, R& D Systems, Inc.), retinoic acid (Sigma-Aldrich Japan) and a hepatic cell growth factor (HGF, Sigma-Aldrich Japan).
RT-PCR to SOX-17, GATA6 and TTR was performed under the following conditions.

## CC1=C(/C=C/C(C)=C/C=C/C(C)=C/C(=O)O)C(C)(C)CCC1 [retinoic acid, reference compound]
  expression of C/EBPα: not observed to be expressed
  expression of FOXA2: not observed to be expressed
  expression of GATA4: not observed to be expressed
  expression of GATA6: observed to be expressed
  expression of HEX: not observed to be expressed
